Some of the results follow.

The chains behind the UniProt entries cited, without tags or fusion partners. Where a name states a change or a piece, a line headed by the entry shows the natural chain unless it says otherwise.
UniProt Q08AM6: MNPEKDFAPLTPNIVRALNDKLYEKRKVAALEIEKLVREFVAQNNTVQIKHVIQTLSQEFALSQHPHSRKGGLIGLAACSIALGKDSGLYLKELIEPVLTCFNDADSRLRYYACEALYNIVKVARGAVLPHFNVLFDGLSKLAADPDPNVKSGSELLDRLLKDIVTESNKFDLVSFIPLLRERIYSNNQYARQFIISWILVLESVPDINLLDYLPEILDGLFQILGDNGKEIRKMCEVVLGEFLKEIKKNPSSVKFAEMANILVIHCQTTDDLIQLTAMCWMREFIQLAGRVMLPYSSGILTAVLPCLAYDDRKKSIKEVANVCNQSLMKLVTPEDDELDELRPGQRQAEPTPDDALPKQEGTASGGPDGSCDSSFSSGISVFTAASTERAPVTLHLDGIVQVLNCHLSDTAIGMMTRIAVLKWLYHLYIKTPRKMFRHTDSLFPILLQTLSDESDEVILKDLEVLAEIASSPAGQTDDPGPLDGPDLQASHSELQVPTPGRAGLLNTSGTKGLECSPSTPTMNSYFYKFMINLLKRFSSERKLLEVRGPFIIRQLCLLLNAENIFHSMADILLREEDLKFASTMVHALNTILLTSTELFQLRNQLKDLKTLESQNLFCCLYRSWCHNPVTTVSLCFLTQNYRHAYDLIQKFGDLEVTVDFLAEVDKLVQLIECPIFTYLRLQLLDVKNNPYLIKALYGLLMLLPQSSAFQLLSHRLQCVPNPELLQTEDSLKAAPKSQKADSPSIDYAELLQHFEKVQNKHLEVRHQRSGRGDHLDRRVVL
UniProt Q9UQR1: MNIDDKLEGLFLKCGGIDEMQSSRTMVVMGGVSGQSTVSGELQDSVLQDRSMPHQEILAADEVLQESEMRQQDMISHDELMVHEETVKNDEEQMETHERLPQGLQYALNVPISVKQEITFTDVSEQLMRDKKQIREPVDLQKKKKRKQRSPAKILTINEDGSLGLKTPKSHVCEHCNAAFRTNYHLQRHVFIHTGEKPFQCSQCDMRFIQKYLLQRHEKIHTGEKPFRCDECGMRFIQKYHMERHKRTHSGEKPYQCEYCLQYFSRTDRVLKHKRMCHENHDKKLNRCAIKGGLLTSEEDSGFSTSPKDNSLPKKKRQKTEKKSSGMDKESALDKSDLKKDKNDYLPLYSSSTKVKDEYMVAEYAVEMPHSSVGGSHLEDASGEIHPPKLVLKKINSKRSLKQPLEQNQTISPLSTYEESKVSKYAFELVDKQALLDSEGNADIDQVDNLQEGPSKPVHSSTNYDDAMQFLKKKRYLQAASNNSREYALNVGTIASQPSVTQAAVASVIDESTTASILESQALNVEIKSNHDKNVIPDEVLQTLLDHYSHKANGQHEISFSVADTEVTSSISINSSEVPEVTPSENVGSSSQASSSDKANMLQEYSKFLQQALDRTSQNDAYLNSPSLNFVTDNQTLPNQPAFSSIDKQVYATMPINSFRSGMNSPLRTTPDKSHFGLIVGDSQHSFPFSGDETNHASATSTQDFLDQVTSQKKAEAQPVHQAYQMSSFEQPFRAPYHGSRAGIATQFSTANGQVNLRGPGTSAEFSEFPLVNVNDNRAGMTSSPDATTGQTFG
UniProt P61981: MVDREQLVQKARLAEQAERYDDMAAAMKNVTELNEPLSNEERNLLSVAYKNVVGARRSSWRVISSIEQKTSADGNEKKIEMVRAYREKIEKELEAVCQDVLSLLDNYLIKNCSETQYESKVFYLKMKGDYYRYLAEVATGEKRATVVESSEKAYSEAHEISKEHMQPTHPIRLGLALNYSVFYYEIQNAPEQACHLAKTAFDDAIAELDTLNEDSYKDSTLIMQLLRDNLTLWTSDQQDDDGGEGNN
UniProt O15498: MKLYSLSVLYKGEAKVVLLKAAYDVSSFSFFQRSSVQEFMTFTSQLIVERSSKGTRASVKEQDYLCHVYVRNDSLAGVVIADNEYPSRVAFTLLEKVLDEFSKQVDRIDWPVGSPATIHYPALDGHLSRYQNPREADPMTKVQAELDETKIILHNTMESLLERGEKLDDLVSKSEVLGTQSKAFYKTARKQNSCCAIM
UniProt Q9BRU9: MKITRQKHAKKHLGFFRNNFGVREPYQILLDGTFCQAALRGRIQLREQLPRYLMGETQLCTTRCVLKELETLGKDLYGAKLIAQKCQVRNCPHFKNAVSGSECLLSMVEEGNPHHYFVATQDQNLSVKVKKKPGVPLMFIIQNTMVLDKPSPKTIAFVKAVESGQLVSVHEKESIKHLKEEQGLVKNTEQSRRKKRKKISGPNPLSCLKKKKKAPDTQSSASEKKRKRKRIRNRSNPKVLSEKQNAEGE
UniProt Q9H270: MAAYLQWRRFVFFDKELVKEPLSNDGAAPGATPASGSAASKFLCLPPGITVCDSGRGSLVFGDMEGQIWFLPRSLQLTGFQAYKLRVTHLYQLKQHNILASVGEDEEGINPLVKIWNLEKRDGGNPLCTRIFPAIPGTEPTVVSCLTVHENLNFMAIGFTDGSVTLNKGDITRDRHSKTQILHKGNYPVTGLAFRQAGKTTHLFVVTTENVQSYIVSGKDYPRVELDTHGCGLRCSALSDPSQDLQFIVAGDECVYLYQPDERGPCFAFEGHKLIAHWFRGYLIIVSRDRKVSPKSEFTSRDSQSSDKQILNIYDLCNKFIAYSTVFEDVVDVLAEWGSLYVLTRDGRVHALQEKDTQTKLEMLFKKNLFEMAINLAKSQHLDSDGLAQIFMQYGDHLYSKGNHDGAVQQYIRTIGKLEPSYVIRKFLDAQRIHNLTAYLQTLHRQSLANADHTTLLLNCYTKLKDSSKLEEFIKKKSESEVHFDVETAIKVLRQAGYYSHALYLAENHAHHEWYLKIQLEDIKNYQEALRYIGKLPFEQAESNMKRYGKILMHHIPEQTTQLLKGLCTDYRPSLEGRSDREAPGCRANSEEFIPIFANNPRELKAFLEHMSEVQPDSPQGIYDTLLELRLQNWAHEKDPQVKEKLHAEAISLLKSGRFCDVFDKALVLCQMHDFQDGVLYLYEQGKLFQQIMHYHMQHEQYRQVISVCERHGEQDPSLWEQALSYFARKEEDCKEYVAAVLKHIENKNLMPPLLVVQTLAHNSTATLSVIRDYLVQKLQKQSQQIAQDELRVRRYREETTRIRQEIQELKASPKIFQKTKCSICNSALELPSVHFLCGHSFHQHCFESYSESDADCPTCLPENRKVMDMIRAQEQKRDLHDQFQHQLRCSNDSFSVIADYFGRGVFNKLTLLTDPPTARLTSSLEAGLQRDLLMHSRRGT
UniProt P45880: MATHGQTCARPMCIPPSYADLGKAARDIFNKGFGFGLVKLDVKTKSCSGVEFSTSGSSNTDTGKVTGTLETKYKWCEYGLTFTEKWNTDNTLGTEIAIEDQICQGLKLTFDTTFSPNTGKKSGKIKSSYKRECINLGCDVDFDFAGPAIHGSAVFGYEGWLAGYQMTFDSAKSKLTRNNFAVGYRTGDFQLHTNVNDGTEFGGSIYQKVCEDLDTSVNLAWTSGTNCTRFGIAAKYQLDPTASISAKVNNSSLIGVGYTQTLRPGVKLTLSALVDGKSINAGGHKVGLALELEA
UniProt P15498: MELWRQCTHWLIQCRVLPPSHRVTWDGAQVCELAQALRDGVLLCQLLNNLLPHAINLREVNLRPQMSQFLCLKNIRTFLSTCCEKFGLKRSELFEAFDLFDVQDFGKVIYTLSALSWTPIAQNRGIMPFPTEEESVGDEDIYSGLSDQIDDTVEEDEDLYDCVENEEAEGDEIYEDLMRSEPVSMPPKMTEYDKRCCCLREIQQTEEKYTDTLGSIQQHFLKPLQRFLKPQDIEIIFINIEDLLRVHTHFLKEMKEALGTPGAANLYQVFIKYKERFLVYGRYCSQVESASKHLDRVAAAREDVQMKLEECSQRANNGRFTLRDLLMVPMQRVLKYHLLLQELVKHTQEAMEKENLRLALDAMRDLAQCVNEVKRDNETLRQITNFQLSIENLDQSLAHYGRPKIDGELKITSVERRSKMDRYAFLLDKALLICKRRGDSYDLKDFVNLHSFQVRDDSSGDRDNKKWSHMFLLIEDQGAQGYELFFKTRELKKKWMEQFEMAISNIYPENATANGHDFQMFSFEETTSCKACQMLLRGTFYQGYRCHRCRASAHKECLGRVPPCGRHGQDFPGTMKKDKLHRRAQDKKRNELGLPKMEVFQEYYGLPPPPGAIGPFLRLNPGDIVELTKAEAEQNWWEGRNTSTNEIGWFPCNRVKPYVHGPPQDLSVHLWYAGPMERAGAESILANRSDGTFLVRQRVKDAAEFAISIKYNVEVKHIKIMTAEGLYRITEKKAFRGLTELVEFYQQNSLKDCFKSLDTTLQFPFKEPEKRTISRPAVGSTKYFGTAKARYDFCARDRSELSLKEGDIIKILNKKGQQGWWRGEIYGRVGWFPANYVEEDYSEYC
UniProt Q9H267: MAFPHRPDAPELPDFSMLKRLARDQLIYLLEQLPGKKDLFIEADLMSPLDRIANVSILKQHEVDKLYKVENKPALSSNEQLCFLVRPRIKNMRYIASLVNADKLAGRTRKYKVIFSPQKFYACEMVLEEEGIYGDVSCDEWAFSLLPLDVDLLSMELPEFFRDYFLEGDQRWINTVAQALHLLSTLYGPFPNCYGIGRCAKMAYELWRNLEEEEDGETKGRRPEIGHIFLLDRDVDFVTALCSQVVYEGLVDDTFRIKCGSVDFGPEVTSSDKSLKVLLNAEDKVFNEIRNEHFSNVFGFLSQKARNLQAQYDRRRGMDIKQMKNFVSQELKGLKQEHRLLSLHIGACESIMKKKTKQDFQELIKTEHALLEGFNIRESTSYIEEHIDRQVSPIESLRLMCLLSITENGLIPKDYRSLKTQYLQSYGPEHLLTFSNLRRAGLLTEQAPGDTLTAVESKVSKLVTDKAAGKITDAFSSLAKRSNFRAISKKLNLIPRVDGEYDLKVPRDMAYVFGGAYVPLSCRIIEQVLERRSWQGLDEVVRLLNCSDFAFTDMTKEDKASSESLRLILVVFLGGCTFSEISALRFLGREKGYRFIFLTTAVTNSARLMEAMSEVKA
UniProt Q5MNZ6: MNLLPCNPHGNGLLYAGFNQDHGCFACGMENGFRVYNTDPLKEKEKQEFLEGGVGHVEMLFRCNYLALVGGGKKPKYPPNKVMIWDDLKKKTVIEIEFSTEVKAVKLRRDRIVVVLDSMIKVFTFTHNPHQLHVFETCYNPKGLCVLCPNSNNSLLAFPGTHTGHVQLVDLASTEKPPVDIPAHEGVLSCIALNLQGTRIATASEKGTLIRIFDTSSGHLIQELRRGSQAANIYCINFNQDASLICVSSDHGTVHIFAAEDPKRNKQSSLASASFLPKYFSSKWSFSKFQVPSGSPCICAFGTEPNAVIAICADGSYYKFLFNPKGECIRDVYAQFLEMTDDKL
UniProt P27348: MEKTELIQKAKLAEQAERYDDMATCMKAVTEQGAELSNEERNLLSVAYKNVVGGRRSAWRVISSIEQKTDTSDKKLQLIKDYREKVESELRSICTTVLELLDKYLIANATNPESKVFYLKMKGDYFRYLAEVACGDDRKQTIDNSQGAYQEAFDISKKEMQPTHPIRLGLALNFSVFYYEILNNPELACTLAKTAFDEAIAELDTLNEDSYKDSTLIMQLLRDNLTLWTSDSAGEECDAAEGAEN
UniProt O43829: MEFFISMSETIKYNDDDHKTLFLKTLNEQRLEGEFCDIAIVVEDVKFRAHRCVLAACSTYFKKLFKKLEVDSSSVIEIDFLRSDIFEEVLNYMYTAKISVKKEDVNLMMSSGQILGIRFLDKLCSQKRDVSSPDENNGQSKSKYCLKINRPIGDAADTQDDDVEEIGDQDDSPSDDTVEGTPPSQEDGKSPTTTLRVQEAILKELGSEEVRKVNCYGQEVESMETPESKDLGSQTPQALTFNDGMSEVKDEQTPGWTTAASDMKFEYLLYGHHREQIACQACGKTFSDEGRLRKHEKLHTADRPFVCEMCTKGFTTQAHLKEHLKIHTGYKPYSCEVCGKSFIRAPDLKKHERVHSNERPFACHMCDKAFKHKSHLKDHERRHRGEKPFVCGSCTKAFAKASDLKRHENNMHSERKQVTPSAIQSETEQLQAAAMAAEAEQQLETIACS
UniProt Q9Y5A9: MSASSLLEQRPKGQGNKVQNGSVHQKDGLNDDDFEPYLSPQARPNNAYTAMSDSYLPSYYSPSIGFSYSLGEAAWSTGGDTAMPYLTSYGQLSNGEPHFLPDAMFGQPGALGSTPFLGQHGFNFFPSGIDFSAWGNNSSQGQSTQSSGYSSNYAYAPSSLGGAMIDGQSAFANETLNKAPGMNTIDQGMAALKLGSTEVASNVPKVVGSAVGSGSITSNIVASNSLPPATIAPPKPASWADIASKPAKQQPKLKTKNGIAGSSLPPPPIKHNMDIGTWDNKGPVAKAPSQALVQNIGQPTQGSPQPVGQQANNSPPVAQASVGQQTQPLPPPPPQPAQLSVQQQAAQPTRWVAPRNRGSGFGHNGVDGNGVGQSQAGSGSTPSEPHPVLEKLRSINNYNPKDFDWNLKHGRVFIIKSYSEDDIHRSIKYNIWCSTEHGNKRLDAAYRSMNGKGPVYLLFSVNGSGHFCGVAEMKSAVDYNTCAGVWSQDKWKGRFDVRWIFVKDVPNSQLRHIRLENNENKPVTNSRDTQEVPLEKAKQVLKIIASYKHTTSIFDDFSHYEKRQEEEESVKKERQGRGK

Compound in this test: COc1ccc(Cn2ccc3ccc(C(=O)NO)cc32)cc1
Nature of the test: dose-dependent thermal stabilisation call (2D-TPP, DLPTP, 10% FDR) (binary (1 = stabilised)); higher = stabilised by the compound. To be noted: system: HL-60 intact cells; concentration range 0.04-10 µM.
For the target VAC14 (UniProt Q08AM6), the “dose-dependent thermal stabilisation call” value is inactive: 0. As for ZBTB33 (UniProt Q86T24), the figure is inactive: 0; as for VPS13B (UniProt Q7Z7G8), inactive: 0. As for ZNF148 (UniProt Q9UQR1), the figure is inactive: 0; as for YWHAG (UniProt P61981), inactive: 0; as for XRCC4 (UniProt Q13426), inactive: 0. As for YKT6 (UniProt O15498), the figure is inactive: 0. In the case of UTP23 (UniProt Q9BRU9), the “dose-dependent thermal stabilisation call” value is inactive: 0. As for ZEB1 (UniProt P37275), the figure is inactive: 0. On to VPS11 (UniProt Q9H270), for which the “dose-dependent thermal stabilisation call” value was inactive: 0. As for VDAC2 (UniProt P45880), the figure is inactive: 0; as for ZMAT2 (UniProt Q96NC0), inactive: 0.

For VAV1 (UniProt P15498), the “dose-dependent thermal stabilisation call” value was inactive: 0. As for VAMP7 (UniProt P51809), the figure is inactive: 0; as for WIZ (UniProt O95785), inactive: 0.

As for VARS2 (UniProt Q5ST30), the “dose-dependent thermal stabilisation call” value is inactive: 0. As for VPS33B (UniProt Q9H267), the figure is inactive: 0. As for VCP (UniProt P55072), the figure is inactive: 0; as for WDR45L (UniProt Q5MNZ6), inactive: 0. As for YWHAQ (UniProt P27348), the figure is inactive: 0; as for WDR91 (UniProt A4D1P6), inactive: 0; as for YTHDC1 (UniProt Q96MU7), inactive: 0.

ZFP161 (UniProt O43829): the “dose-dependent thermal stabilisation call” value is inactive: 0. As for ZC3H8 (UniProt Q8N5P1), the figure is inactive: 0; as for VTA1 (UniProt Q9NP79), inactive: 0; as for YTHDF2 (UniProt Q9Y5A9), inactive: 0. As for WDSUB1 (UniProt Q8N9V3), the figure is inactive: 0.

Values taken from the supplement of paper PMC7666118.
